The results in this text go back to PMC9569955.

Sequences of proteins named here, by UniProt entry; tags and fusion partners are left off. Residues count along the entry.
UniProt O95793, residues 82-577: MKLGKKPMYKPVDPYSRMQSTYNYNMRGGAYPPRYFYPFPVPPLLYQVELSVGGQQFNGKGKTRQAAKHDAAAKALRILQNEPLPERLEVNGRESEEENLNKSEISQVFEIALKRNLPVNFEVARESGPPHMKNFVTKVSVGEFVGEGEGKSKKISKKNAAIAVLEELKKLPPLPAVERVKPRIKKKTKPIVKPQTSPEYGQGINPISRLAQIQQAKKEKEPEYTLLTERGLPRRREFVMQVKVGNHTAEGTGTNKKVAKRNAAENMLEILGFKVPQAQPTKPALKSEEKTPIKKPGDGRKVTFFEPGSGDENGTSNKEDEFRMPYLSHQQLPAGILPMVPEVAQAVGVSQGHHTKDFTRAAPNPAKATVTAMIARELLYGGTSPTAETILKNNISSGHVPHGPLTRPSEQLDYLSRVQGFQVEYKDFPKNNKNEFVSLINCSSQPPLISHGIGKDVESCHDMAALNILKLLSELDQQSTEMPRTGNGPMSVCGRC
UniProt Q12834: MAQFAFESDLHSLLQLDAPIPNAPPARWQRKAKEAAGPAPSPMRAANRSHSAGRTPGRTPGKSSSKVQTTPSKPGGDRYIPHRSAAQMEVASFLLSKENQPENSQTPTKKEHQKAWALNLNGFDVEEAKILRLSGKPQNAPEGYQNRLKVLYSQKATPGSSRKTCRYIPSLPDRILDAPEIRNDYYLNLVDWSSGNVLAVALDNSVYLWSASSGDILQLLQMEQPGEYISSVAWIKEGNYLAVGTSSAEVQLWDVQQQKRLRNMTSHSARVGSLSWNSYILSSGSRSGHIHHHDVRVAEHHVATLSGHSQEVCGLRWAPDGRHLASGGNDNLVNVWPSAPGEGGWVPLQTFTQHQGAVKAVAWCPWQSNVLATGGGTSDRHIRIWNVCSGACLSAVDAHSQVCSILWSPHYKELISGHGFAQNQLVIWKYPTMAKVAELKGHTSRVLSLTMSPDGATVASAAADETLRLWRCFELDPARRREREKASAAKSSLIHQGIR
UniProt P51114: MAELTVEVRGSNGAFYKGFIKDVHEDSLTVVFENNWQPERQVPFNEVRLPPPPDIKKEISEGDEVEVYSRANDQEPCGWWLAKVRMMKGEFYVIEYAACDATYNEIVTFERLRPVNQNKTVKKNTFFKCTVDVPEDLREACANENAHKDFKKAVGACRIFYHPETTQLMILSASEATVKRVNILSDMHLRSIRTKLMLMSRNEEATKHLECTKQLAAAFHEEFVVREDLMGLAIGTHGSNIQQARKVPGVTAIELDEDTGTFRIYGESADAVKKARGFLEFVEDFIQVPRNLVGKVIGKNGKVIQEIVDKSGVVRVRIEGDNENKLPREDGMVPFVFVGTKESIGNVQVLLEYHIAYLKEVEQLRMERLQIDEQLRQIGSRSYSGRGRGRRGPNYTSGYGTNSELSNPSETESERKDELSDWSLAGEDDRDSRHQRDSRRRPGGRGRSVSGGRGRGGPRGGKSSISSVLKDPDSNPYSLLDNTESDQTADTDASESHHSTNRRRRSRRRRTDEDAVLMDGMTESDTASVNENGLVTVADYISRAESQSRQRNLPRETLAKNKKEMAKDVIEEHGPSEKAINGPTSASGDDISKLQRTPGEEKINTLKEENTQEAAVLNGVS
UniProt Q14258: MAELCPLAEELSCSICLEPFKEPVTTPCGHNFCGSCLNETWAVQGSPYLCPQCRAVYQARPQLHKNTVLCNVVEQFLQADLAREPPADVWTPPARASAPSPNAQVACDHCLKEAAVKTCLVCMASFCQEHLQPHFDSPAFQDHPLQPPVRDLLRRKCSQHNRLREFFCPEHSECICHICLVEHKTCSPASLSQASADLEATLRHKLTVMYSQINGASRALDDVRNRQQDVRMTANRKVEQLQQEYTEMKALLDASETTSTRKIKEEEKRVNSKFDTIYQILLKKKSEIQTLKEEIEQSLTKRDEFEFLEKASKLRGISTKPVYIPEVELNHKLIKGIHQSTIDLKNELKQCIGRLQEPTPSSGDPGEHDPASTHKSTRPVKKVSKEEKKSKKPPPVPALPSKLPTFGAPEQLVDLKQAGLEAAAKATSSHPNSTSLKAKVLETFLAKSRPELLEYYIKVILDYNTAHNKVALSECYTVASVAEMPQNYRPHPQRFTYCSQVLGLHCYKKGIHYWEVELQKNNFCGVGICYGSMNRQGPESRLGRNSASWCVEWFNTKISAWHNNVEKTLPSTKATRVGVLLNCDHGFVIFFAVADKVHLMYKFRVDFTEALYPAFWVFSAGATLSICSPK

Results are given in words; binding and its absence hold for the method and conditions named. Binding seen in cells or lysates may run through a third protein. These calls come from enrichment with a bait or labelling near it, and not all partners need be listed.

The target in assay [1] is STAU1^55-HA3-TurboID (UniProt O95793). Description: proximity labelling; TurboID: hTERT-RPE1 cells stably expressing STAU1^55-HA3-TurboID, synchronized in mitosis (nocodazole) or in G1/S (double thymidine block), 50 uM biotin for 3 h; biotinylated proteins pulled down with streptavidin-coated magnetic beads, LC-MS/MS; proteins kept if total spectrum enriched at least four times over controls.

For assay [2], the target named is STAU1^55-HA3-biotin ligase (BioID2) (UniProt O95793). In words: proximity labelling; BioID2: asynchronous hTERT-RPE1 cells stably expressing Stau1^55-HA3-BioID2, 50 uM biotin for 16 h; biotinylated proteins pulled down with streptavidin-coated magnetic beads, LC-MS/MS; proteins kept if total spectrum enriched at least four times over controls.

In the case of “cell division cycle 20 (CDC20) (from UniProt Q12834 1-499)”, in assay [1], the binding entry is “binds”. In the case of FXR1 (from UniProt P51114 1-621), the binding result in assay [2] is on record as “binds”. On to TRIM25 (from UniProt Q14258 1-630), for which the binding entry in assay [1] and in assay [2] was “binds” in each case.

B1: STAU2 (protein, UniProt Q9NUL3 1-570)
chain: MANPKEKTAMCLVNELARFNRVQPQYKLLNERGPAHSKMFSVQLSLGEQTWESEGSSIKKAQQAVANKALTESTLPKPVQKPPKSNVNNNPGSITPTVELNGLAMKRGEPAIYRPLDPKPFPNYRANYNFRGMYNQRYHCPVPKIFYVQLTVGNNEFFGEGKTRQAARHNAAMKALQALQNEPIPERSPQNGESGKDVDDDKDANKSEISLVFEIALKRNMPVSFEVIKESGPPHMKSFVTRVSVGEFSAEGEGNSKKLSKKRAATTVLQELKKLPPLPVVEKPKLFFKKRPKTIVKAGPEYGQGMNPISRLAQIQQAKKEKEPDYVLLSERGMPRRREFVMQVKVGNEVATGTGPNKKIAKKNAAEAMLLQLGYKASTNLQDQLEKTGENKGWSGPKPGFPEPTNNTPKGILHLSPDVYQEMEASRHKVISGTTLGYLSPKDMNQPSSSFFSISPTSNSSATIARELLMNGTSSTAEAIGLKGSSPTPPCSPVQPSKQLEYLARIQGFQAALSALKQFSEQGLDPIDGAMNIEKGSLEKQAKHLREKADNNQAPPGSIAQDCKKSNSAV
Regarding B1, the binding entry in assay [2] is on record as “binds”.

B2: ZNF598 (protein, UniProt Q86UK7 1-904)
chain: MAAAGGAEGRRAALEAAAAAAPERGGGSCVLCCGDLEATALGRCDHPVCYRCSTKMRVLCEQRYCAVCREELRQVVFGKKLPAFATIPIHQLQHEKKYDIYFADGKVYALYRQLLQHECPRCPELPPFSLFGDLEQHMRRQHELFCCRLCLQHLQIFTYERKWYSRKDLARHRMQGDPDDTSHRGHPLCKFCDERYLDNDELLKHLRRDHYFCHFCDSDGAQDYYSDYAYLREHFREKHFLCEEGRCSTEQFTHAFRTEIDLKAHRTACHSRSRAEARQNRHIDLQFSYAPRHSRRNEGVVGGEDYEEVDRYSRQGRVARAGTRGAQQSRRGSWRYKREEEDREVAAAVRASVAAQQQEEARRSEDQEEGGRPKKEEAAARGPEDPRGPRRSPRTQGEGPGPKETSTNGPVSQEAFSVTGPAAPGCVGVPGALPPPSPKLKDEDFPSLSASTSSSCSTAATPGPVGLALPYAIPARGRSAFQEEDFPALVSSVPKPGTAPTSLVSAWNSSSSSKKVAQPPLSAQATGSGQPTRKAGKGSRGGRKGGPPFTQEEEEDGGPALQELLSTRPTGSVSSTLGLASIQPSKVGKKKKVGSEKPGTTLPQPPPATCPPGALQAPEAPASRAEGPVAVVVNGHTEGPAPARSAPKEPPGLPRPLGSFPCPTPQEDFPALGGPCPPRMPPPPGFSAVVLLKGTPPPPPPGLVPPISKPPPGFSGLLPSPHPACVPSPATTTTTKAPRLLPAPRAYLVPENFRERNLQLIQSIRDFLQSDEARFSEFKSHSGEFRQGLISAAQYYKSCRDLLGENFQKVFNELLVLLPDTAKQQELLSAHTDFCNREKPLSTKSKKNKKSAWQATTQQAGLDCRVCPTCQQVLAHGDASSHQALHAARDDDFPSLQAIARIIT
For B2, the binding result in assay [1] and in assay [2] was “binds” each time.

B3: UPF1 (protein, UniProt Q92900 1-1129)
chain: MSVEAYGPSSQTLTFLDTEEAELLGADTQGSEFEFTDFTLPSQTQTPPGGPGGPGGGGAGGPGGAGAGAAAGQLDAQVGPEGILQNGAVDDSVAKTSQLLAELNFEEDEEDTYYTKDLPIHACSYCGIHDPACVVYCNTSKKWFCNGRGNTSGSHIVNHLVRAKCKEVTLHKDGPLGETVLECYNCGCRNVFLLGFIPAKADSVVVLLCRQPCASQSSLKDINWDSSQWQPLIQDRCFLSWLVKIPSEQEQLRARQITAQQINKLEELWKENPSATLEDLEKPGVDEEPQHVLLRYEDAYQYQNIFGPLVKLEADYDKKLKESQTQDNITVRWDLGLNKKRIAYFTLPKTDSGNEDLVIIWLRDMRLMQGDEICLRYKGDLAPLWKGIGHVIKVPDNYGDEIAIELRSSVGAPVEVTHNFQVDFVWKSTSFDRMQSALKTFAVDETSVSGYIYHKLLGHEVEDVIIKCQLPKRFTAQGLPDLNHSQVYAVKTVLQRPLSLIQGPPGTGKTVTSATIVYHLARQGNGPVLVCAPSNIAVDQLTEKIHQTGLKVVRLCAKSREAIDSPVSFLALHNQIRNMDSMPELQKLQQLKDETGELSSADEKRYRALKRTAERELLMNADVICCTCVGAGDPRLAKMQFRSILIDESTQATEPECMVPVVLGAKQLILVGDHCQLGPVVMCKKAAKAGLSQSLFERLVVLGIRPIRLQVQYRMHPALSAFPSNIFYEGSLQNGVTAADRVKKGFDFQWPQPDKPMFFYVTQGQEEIASSGTSYLNRTEAANVEKITTKLLKAGAKPDQIGIITPYEGQRSYLVQYMQFSGSLHTKLYQEVEIASVDAFQGREKDFIILSCVRANEHQGIGFLNDPRRLNVALTRARYGVIIVGNPKALSKQPLWNHLLNYYKEQKVLVEGPLNNLRESLMQFSKPRKLVNTINPGARFMTTAMYDAREAIIPGSVYDRSSQGRPSSMYFQTHDQIGMISAGPSHVAAMNIPIPFNLVMPPMPPPGYFGQANGPAAGRGTPKGKTGRGGRQKNRFGLPGPSQTNLPNSQASQDVASQPFSQGALTQGYISMSQPSQMSQPGLSQPELSQDSYLGDEFKSQIDVALSQDSTYQGERAYQHGGVTGLSQY
Take B3: the binding entry in assay [2] was “binds”.
